Test results: patent publication US8592458B2 (priority 2005, dated 2013)
Some entries share one result that the patent states for a list of compounds.

The chains behind the UniProt entries cited, without tags or fusion partners. Residues count along the entry.
UniProt Q05941, 23-502: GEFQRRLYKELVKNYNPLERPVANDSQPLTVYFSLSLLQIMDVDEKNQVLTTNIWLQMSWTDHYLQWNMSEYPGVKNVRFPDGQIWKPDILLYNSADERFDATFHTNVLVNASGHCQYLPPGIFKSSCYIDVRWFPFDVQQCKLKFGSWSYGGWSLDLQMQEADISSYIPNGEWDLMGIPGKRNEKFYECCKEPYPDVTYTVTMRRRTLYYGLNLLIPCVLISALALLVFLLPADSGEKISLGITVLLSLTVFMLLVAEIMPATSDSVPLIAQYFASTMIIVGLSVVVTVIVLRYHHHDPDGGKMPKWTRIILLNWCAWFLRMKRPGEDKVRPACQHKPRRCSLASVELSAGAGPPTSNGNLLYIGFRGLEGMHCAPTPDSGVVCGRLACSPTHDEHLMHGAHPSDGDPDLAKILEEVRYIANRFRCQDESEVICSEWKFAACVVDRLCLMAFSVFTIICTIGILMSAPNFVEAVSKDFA

Target: α7 nAChR (Rattus norvegicus, UniProt Q05941)
Format: binding
Details: DMXB group attached to the 3-position of the methylated anabaseine

Compound | improvement in alpha7 selectivity relative to DMXBA [fold]
COc1ccc(C=C2C(c3cccnc3)=NCCC2C)c(OC)c1 (racemic) [(S,R)-4-Methyl-DMXBA, 3-(2,4-dimethoxybenzylidene)-(4-methyl)-3,4,5,6-tetrahydro-2,3′-bipyridine] | > 10
COc1ccc(C=C2CC(C)CN=C2c2cccnc2)c(OC)c1 (racemic) [(S,R)-5-Methyl-DMXBA, 3-(2,4-dimethoxybenzylidene)-(5-methyl)-3,4,5,6-tetrahydro-2,3′-bipyridine] | > 10
COc1ccc(C=C2CCC(C)N=C2c2cccnc2)c(OC)c1 (racemic) [(S,R)-6-Methyl-DMXBA, 3-(2,4-dimethoxybenzylidene)-(6-methyl)-3,4,5,6-tetrahydro-2,3′-bipyridine] | > 10
